Record: PubChem BioAssay AID602196 (INSERM, 2012)

- Purpose: 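Knock-downs that protect lung cancer cells from cisplatin or sensitise them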
- System: human A549 lung cancer cells
- Reagent: siRNA pair against human genes
- Timing: 48 h transfection before cisplatin; time from cisplatin to read-out not stated
- Challenge: cisplatin at a dose killing half of control-siRNA cells; exact dose and duration not given
- Read-out: 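Shift in cisplatin death relative to control siRNA, from -50 (all cells die) to +50 (no cells die); siRNAs harmful on their own scored 0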
- Scale: two-siRNA summed score (-2 to +2): higher = both siRNAs protect from cisplatin killing; -2 means both sensitise; mean protection from cisplatin (shift in death) and protection from cisplatin (shift in death), siRNA C and protection from cisplatin (shift in death), siRNA D: higher = protection from cisplatin killing
- Hit rule: 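siRNAs harmful alone (LDH or WST-1) get 0; others get +1 for less and -1 for more cisplatin killing; genes are active when the two siRNAs give the same sign, summing to ±2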
- Meaning of the calls: active = both siRNAs shift cisplatin killing the same way; inactive = no consistent shift, or siRNA harmful alone
In all, the deposit lists about 23,000 reagents; this is an unselected part. In the full data, 455 (2%) got an active call. 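Active includes both protection and sensitisation; some change values fall well beyond the stated -50 to +50 range.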 Not stated in the record: the amount of reagent.

gene	two-siRNA summed score (-2 to +2)	mean protection from cisplatin (shift in death) (%)	protection from cisplatin (shift in death), siRNA C (%)	protection from cisplatin (shift in death), siRNA D (%)	outcome
HIF3A	-1	-8.8	-14	-3.6	inactive
NDUFB9	0	-2.7	-7	1.7	inactive
TBC1D26	0	4	7.3	0.7	inactive
ENTREP1	0	7.1	4.5	9.8	inactive
ADAMTS5	0	-10.1	-7	-13.1	inactive
OR6C76	0	9.7	9	10.3	inactive
BPI	-1	-10.1	-18.5	-1.6	inactive
LOC442208	0	-7.8	-7.3	-8.4	inactive
IPO8	0	-4.4	3.2	-12.1	inactive
LOC441088	-1	-5.4	3.1	-13.8	inactive
LOC440678	0	2.9	-5.2	11	inactive
LOC400586	0	1.6	3.5	-0.4	inactive
LOC441019	0	1.4	-4.6	7.5	inactive
B3GNT3	0	5.2	4.4	6	inactive
LOC389904	1	17.3	21.6	13	inactive
KLHDC9	1	25.4	26.8	24	inactive
PLEKHA8P1	0	7.1	10	4.3	inactive
LOC441094	0	5.8	9.3	2.3	inactive
UROS	-1	-8.5	8.7	-25.8	inactive
SELENOP	1	9.5	6.3	12.6	inactive
RPGRIP1L	0	8.2	13.9	2.5	inactive
SLC9A9	-1	-12.3	-20.7	-3.9	inactive
IGHMBP2	0	7.5	8.4	6.5	inactive
LOC440085	0	14.3	6.1	22.5	inactive
BZW2	1	15.6	26.3	4.9	inactive
LOC441825	1	20.1	12	28.1	inactive
REEP4	1	19.6	35.8	3.3	inactive
KIAA2012	0	3.4	13.4	-6.6	inactive
BSPRY	0	5	1.4	8.5	inactive
LOC440286	0	6.4	15.4	-2.6	inactive
LOC442589	0	2.3	-1.9	6.4	inactive
ELP1	0	0.7	0.3	1.1	inactive
PJA2	-1	-5.7	1.6	-13.1	inactive
LOC401778	1	10.9	11.5	10.3	inactive
TLK2	1	-0.4	11.2	-12	inactive
TBKBP1	1	-0.9	-14.7	12.8	inactive
STOML3	-1	-9.4	-17.6	-1.1	inactive
PDZD4	0	3.6	11.8	-4.5	inactive
FIP1L1	0	1.4	0	2.8	inactive

Reformatted: entries from further up.
ENTREP1 → two-siRNA summed score (-2 to +2): 0; mean protection from cisplatin (shift in death) (%): 7.1; protection from cisplatin (shift in death), siRNA C (%): 4.5; protection from cisplatin (shift in death), siRNA D (%): 9.8; outcome: inactive
ADAMTS5 → two-siRNA summed score (-2 to +2): 0; mean protection from cisplatin (shift in death) (%): -10.1; protection from cisplatin (shift in death), siRNA C (%): -7; protection from cisplatin (shift in death), siRNA D (%): -13.1; outcome: inactive
